± gives the standard deviation of the averaged measurements. Values are relative to the signal before dosing, not to a vehicle control; the signal also falls without drug.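 Labels refer to human fibroblasts, largely primary: uterine (C12385, HUF), lung (H6013), bone (Hs27A), adrenal (HADF), skin (WS1), plus mammary HMF and breast cancer-associated Hs343T. Cancer lines are basal-like or mesenchymal-like triple-negative breast cancer. The paper counts as hits responses shifting over 3x the replicate standard deviation. The tissue of the other fibroblasts is not given here.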
Test system: MDAMB468
Experiment: relative JC-1 red fluorescence (viability) vs pre-drug, coculture with fibroblast (fraction); higher = more viable cancer cells
Details: 1 µM
Experimental: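 JC-1 labelled TNBC cells cocultured 1:1 (1,500 cells each) with CellTrace Violet stained primary or stromal fibroblasts in 384-well plates in FluoroBrite medium, treated with one of 42 anticancer drugs at 0.1, 1, 10 or 100 uM. JC-1 red fluorescence (mitochondrial integrity in cancer cells only) was read by plate reader every 8 h for 72 h. Values are normalised to each well's pre-drug value. The stock of one drug was tenfold lower, so its dose labels may be too high.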

COc1cc([C@@H]2c3cc4c(cc3[C@@H](O[C@@H]3O[C@@H]5CO[C@@H](c6cccs6)O[C@H]5[C@H](O)[C@H]3O)[C@H]3COC(=O)[C@H]23)OCO4)cc(OC)c1O [Teniposide]
relative JC-1 red fluorescence
Details | 40 h | 48 h | 56 h | 64 h | 72 h
coculture fibroblast: C12385 | – | 0.691 ± 0.076 | 0.645 ± 0.079 | 0.632 ± 0.11 | 0.633 ± 0.12
coculture fibroblast: H6013 | – | 0.841 ± 0.097 | 0.81 ± 0.11 | 0.801 ± 0.11 | 0.739 ± 0.11
coculture fibroblast: H6019 | – | 0.687 ± 0.12 | 0.636 ± 0.12 | 0.605 ± 0.12 | 0.589 ± 0.12
coculture fibroblast: H6076 | – | 0.73 ± 0.024 | 0.706 ± 0.011 | 0.695 ± 0.0091 | 0.718 ± 0.012
coculture fibroblast: H6231 | – | 0.75 ± 0.092 | 0.715 ± 0.097 | 0.703 ± 0.1 | 0.701 ± 0.12
coculture fibroblast: HADF | – | 0.744 ± 0.011 | 0.707 ± 0.014 | 0.6983 ± 0.0048 | 0.644 ± 0.013
coculture fibroblast: HCFa | – | 0.706 ± 0.062 | 0.668 ± 0.081 | 0.639 ± 0.1 | 0.597 ± 0.11
coculture fibroblast: HCPF | – | 0.724 ± 0.019 | 0.675 ± 0.046 | 0.664 ± 0.056 | 0.649 ± 0.069
coculture fibroblast: HHSteC | 0.805 ± 0.029 | 0.8 ± 0.024 | 0.745 ± 0.025 | 0.722 ± 0.032 | 0.664 ± 0.036
coculture fibroblast: HMF | 0.763 ± 0.021 | 0.752 ± 0.029 | 0.693 ± 0.034 | 0.668 ± 0.035 | 0.667 ± 0.051
coculture fibroblast: HPFa | 0.821 ± 0.033 | 0.817 ± 0.04 | 0.765 ± 0.037 | 0.754 ± 0.026 | 0.681 ± 0.016
coculture fibroblast: HUF | 0.666 ± 0.035 | 0.64 ± 0.04 | 0.588 ± 0.036 | 0.566 ± 0.043 | 0.542 ± 0.048
coculture fibroblast: Hs5 | 0.802 ± 0.018 | 0.778 ± 0.031 | 0.747 ± 0.043 | 0.724 ± 0.062 | 0.738 ± 0.066
coculture fibroblast: Hs27A | 0.764 ± 0.013 | 0.772 ± 0.011 | 0.741 ± 0.0064 | 0.726 ± 0.016 | 0.688 ± 0.021
coculture fibroblast: Hs343T | 0.731 ± 0.031 | 0.717 ± 0.021 | 0.679 ± 0.02 | 0.653 ± 0.0073 | 0.6408 ± 0.00081
coculture fibroblast: WS1 | 0.655 ± 0.044 | 0.634 ± 0.059 | 0.613 ± 0.061 | 0.6 ± 0.073 | 0.599 ± 0.08

Source: the supplement of paper PMC6078165
